Laboratory results: patent US9434687B2, “Detection of synthetic cannabinoids” (priority 2011, dated 2016)

Legend:
Assay type in all cases: binding, sheep
[1] = test system: IgG fraction of antiserum raised to Immunogen VII
Method: (§1) An aqueous solution of each immunogen was formulated with Freund's Complete Adjuvant (FCA) to form an emulsion consisting of 2 mg/ml*immunogen in 50% (v/v) FCA. Three sheep were immunised with this emulsion (1° immunisation), 0.25 ml being intramuscularly injected at each of four sites in the flank of each animal. Subsequent immunizations (boosts) contained 1 mg/ml*immunogen. All boosts were emulsified in 50% (v/v) Freund's Incomplete Adjuvant (FIA) and were administered in the same manner as the 1° immunisation, at monthly intervals. Blood sampling took place 7 to 14 days after each boost. *The general procedure for immunogen administration is outlined above, however, it was necessary to deviate from this protocol in some cases, due to reduced immunogen concentrations (Immunogens II, IV, VII and VIII) and/or amount available (Immunogen VIII). Any deviations from the protocol described are outlined in Table 5 below and highlighted in bold.
(§2) The wells of an enhanced binding 96 well polystyrene microtiter plate were coated with IgG fraction of antiserum raised to Immunogen I or II, diluted in 10 mM Tris, pH8.5 (125 μl/well). The appropriate antibody coating dilution was determined using standard ELISA checkerboard techniques. The plate was incubated overnight at 4° C., washed 4 times over 10 minutes with Tris buffered saline containing Tween 20 (TBST) and tapped dry. Standard solutions (JWH-018 for Immunogens I and II) were applied at 0, 0.625, 1.25, 2.5, 5, 10, 20 and 40 ng/ml and 50 μl of each was added to the appropriate wells. 75 μl of conjugate (appropriate hapten-HRP) diluted in Tris buffer (pH 7.2) containing EDTA, D-mannitol, sucrose, thimerosal and BSA, was added to each of the wells. The appropriate dilution of conjugate was also determined using standard ELISA checkerboard techniques. The plate was incubated at 25° C. for 1 hour. Excess unbound conjugate was removed by washing 6 times over a 10 minute period with TBST. 125 μl of tetramethylbenzidine (TMB) substrate solution was added to each well of the plate that was then incubated for 20 minutes in the dark at room temperature. The reaction was terminated by addition of 125 μl 0.2M H2SO4 to each well. The absorbance was then measured at 450 nm using a microtiter plate reader. The data are inputted to a computer program called ‘KC Junior’. It is a 4 parameter fit curve and allow the calculation of concentrations between the standard runs. This program is used to calculate the IC50s by dividing the 0 ng/ml OD value by 2 and obtaining the concentration value from the curve for this OD.
(§3) In a similar manner to that described above, the wells of a 96-well microtiter plate were coated with the IgG fraction of the antiserum raised to Immunogens IV, VII or VIII. Standard solutions (JWH-018 for Immunogens IV and VIII, JWH-015 for Immunogen VII) were prepared in TBST at 0, 1.25, 2.5, 5, 10, 20, 40 and 80 ng/ml and conjugate was employed as detection reagent.
(§4) The data set out in Tables 7-10 are generated using antibodies raised against the indicated Immunogens in a competitive binding assay with the indicated tracers, using the indicated standards
(§5) In order to determine the specificity of the competitive ELISAs, standard solutions of a range of structurally similar synthetic cannabinoids and their metabolites were prepared in TBST.
(§6) Using the calibration curves generated and employing a single level of cross reactants, these were used to determine the cross-reactivity of each immunoassay with these substances. These are the standards used for the IC50 and cross-reactivity data generation: […]

[2] = test system: IgG fraction of antiserum raised to Immunogen I
Method: as §1, §2
In a similar manner to that described above, the wells of a 96-well microtiter plate were coated with the IgG fraction of the antiserum raised to Immunogens I or II. Standard solutions (JWH-018 for Immunogen I and II) were applied at 0, 0.625, 1.25, 2.5, 5, 10, 20 and 40 ng/ml and conjugate was employed as detection reagent.
as §4, §5, §6

[3] = test system: IgG fraction of antiserum raised to Immunogen II; test: Competitive ELISA, antibody RS1833B12 to Immunogen II, tracer ESC4555 (Example 36)
Method: as §1
as §2, with “The” for “The wells of an enhanced binding 96 well polystyrene microtiter plate were coated with IgG fraction of antiserum raised to Immunogen I or II, diluted in 10 mM Tris, pH8.5 (125 μl/well). The”, “Standard solutions (JWH-018 for Immunogens I and II) were applied at 0, 0.625, 1.25, 2.5, 5, 10, 20 and 40 ng/ml and 50 μl of each was added to the appropriate wells.” left out, “runs.” for “runs. This program is used to calculate the IC50s by dividing the 0 ng/ml OD value by 2 and obtaining the concentration value from the curve for this OD.”
In a similar manner to that described above, the wells of a 96-well microtiter plate were coated with the IgG fraction of the antiserum raised to Immunogens I or II.
as §4, §6

[4] = test system: IgG fraction of antiserum raised to Immunogen IV
Method: as §1, §2, §3, §4, §5, §6

[5] = test system: IgG fraction of antiserum raised to Immunogen VIII
Method: as §1, §2, §3, §4, §5, §6

CCCn1c(C)c(C(=O)c2cccc3ccccc23)c2ccccc21 [JWH-015]
A450 ([1]; JWH-015 1.25 ng/ml): 1.53 | A450 ([1]; JWH-015 2.5 ng/ml): 1.2605 | A450 ([1]; JWH-015 5 ng/ml): 1.0875 | A450 ([1]; JWH-015 10 ng/ml): 0.869 | A450 ([1]; JWH-015 20 ng/ml): 0.69 | A450 ([1]; JWH-015 40 ng/ml): 0.5345 | A450 ([1]; JWH-015 80 ng/ml): 0.407

CCCCCn1cc(C(=O)c2cccc3ccccc23)c2ccccc21 [JWH-018]
A450 ([2]; JWH-018 0.625 ng/ml): 1.247 | A450 ([2]; JWH-018 1.25 ng/ml): 1.004 | A450 ([2]; JWH-018 2.5 ng/ml): 0.707 | A450 ([2]; JWH-018 5 ng/ml): 0.504 | A450 ([2]; JWH-018 10 ng/ml): 0.323 | A450 ([2]; JWH-018 20 ng/ml): 0.22 | A450 ([2]; JWH-018 40 ng/ml): 0.15 | A450 ([3]; JWH-018 0.625 ng/ml): 0.984 | A450 ([3]; JWH-018 1.25 ng/ml): 0.7685 | A450 ([3]; JWH-018 2.5 ng/ml): 0.499 | A450 ([3]; JWH-018 5 ng/ml): 0.3615 | A450 ([3]; JWH-018 10 ng/ml): 0.2525 | A450 ([3]; JWH-018 20 ng/ml): 0.1855 | A450 ([3]; JWH-018 40 ng/ml): 0.149 | A450 ([4]; JWH-018 1.25 ng/ml): 1.479 | A450 ([4]; JWH-018 2.5 ng/ml): 1.1625 | A450 ([4]; JWH-018 5 ng/ml): 0.7155 | A450 ([4]; JWH-018 10 ng/ml): 0.442 | A450 ([4]; JWH-018 20 ng/ml): 0.2645 | A450 ([4]; JWH-018 40 ng/ml): 0.1735 | A450 ([4]; JWH-018 80 ng/ml): 0.116 | A450 ([5]; JWH-018 1 ng/ml): 1.09 | A450 ([5]; JWH-018 3 ng/ml): 0.8765 | A450 ([5]; JWH-018 5 ng/ml): 0.708 | A450 ([5]; JWH-018 10 ng/ml): 0.5515 | A450 ([5]; JWH-018 20 ng/ml): 0.4015 | A450 ([5]; JWH-018 40 ng/ml): 0.3095 | A450 ([5]; JWH-018 80 ng/ml): 0.217

Read-outs that look alike come from different tables or passages of the source.
